# Values from PubChem BioAssay AID504744 (Drosophila RNAi Screening Center, 2011).
# Assay: 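Find genes whose loss alters insulin-driven dAkt phosphorylation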 (primary screen)
# System: Drosophila Kc167 cells
# Knock-down reagent: long dsRNA against Drosophila genes, 250 ng dsRNA per well of a 384-well plate
# Time to read-out: 3 days of knock-down, then overnight serum-free starvation before stimulation
# Treatment: bovine insulin at 387 nM for 10 minutes after 12 h without serum
# Measurement: 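In-cell antibody fluorescence for phospho-dAkt in each well over DNA-dye signal, with log2 residuals expressed as z-scores adjusted for cell count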
# Hit rule: 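Hit in the insulin screen when the two-replicate mean z-score is more extreme than plus or minus 2.5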
# The deposit covers about 23,000 reagents; this is a random part of those that have a named target and a result. Of all reagents, 98 (0.43%) were called active. 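Only hit calls are given; the phospho-dAkt signals, z-scores and hit direction were not deposited.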 A plus sign joins genes that one reagent is predicted to hit.
target,dsRNA,outcome
CG14538 (retired record),DRSC02396,inactive
RpS11 (Ribosomal protein S11),DRSC07289,inactive
RpS11 (Ribosomal protein S11),DRSC22700,inactive
dgo (diego),DRSC06134,inactive
Obp57c + Obp57b,DRSC21914,inactive
tsr (twinstar),DRSC04718,inactive
CG17658,DRSC04292,inactive
Wdr92 (WD repeat domain 92),DRSC10187,inactive
Mnn1 (Menin 1),DRSC03368,inactive
spz3 (spatzle 3),DRSC02391,inactive
spz3 (spatzle 3),DRSC03008,inactive
Sesn (Sestrin),DRSC04101,inactive
Sesn (Sestrin),DRSC04102,inactive
Sesn (Sestrin),DRSC04103,inactive
CG6294 + CG6299,DRSC19980,inactive
CG5493 + CG5327,DRSC06938,inactive
Ssb-c31a (Single stranded-binding protein c31A),DRSC03443,inactive
Sc2,DRSC08162,inactive
Galt (Galactose-1-phosphate uridylyltransferase),DRSC03161,inactive
Drat (Death resistor Adh domain containing target),DRSC06600,inactive
E(bx) (Enhancer of bithorax),DRSC08172,inactive
E(bx) (Enhancer of bithorax),DRSC08509,inactive
E(bx) (Enhancer of bithorax),DRSC08583,inactive
ppk26 (pickpocket 26),DRSC10991,inactive
dati (datilografo),DRSC17128,inactive
dati (datilografo),DRSC17153,inactive
vir (virilizer),DRSC04377,inactive
Rh4 (Rhodopsin 4),DRSC11268,inactive
CG5504,DRSC04701,inactive
CG5756,DRSC06950,inactive
msi (musashi),DRSC17003,inactive
Cont (Contactin),DRSC12149,inactive
Elp5 (Elongator complex protein 5),DRSC08547,inactive
CG1648,DRSC06610,inactive
CenG1A (Centaurin gamma 1A),DRSC02538,inactive
CenG1A (Centaurin gamma 1A),DRSC03505,inactive
CenG1A (Centaurin gamma 1A),DRSC03506,inactive
Cht6 (Chitinase 6),DRSC18001,inactive
Cht6 (Chitinase 6),DRSC18002,inactive
Cht6 (Chitinase 6),DRSC18253,inactive
CG10916,DRSC06012,inactive
CG18063,DRSC01968,inactive
CG14212,DRSC19568,inactive
CG7236,DRSC03037,inactive
CG4658,DRSC02768,inactive
CG33642,DRSC01325,inactive
mRpL28 (mitochondrial ribosomal protein L28),DRSC02724,inactive
Tom40 (Translocase of outer membrane 40),DRSC18796,inactive
CG13031,DRSC09911,inactive
CG17752,DRSC15262,inactive
CG42232,DRSC15018,inactive
CG42232,DRSC15019,inactive

In a second layout: 16 of the entries above
target | dsRNA | outcome
Drat (Death resistor Adh domain containing target) | DRSC06600 | inactive
E(bx) (Enhancer of bithorax) | DRSC08172 | inactive
E(bx) (Enhancer of bithorax) | DRSC08509 | inactive
E(bx) (Enhancer of bithorax) | DRSC08583 | inactive
ppk26 (pickpocket 26) | DRSC10991 | inactive
dati (datilografo) | DRSC17128 | inactive
dati (datilografo) | DRSC17153 | inactive
vir (virilizer) | DRSC04377 | inactive
Rh4 (Rhodopsin 4) | DRSC11268 | inactive
CG5504 | DRSC04701 | inactive
CG5756 | DRSC06950 | inactive
msi (musashi) | DRSC17003 | inactive
Cont (Contactin) | DRSC12149 | inactive
Elp5 (Elongator complex protein 5) | DRSC08547 | inactive
CG1648 | DRSC06610 | inactive
CenG1A (Centaurin gamma 1A) | DRSC02538 | inactive

The results go on.
target,dsRNA,outcome
Ugt303B2 (UDP-glycosyltransferase family 303 member B2),DRSC14198,inactive
Ugt303B2 (UDP-glycosyltransferase family 303 member B2),DRSC22864,inactive
Nil (Nilkantha),DRSC15953,inactive
CG14929 + CG4970 + CG14930,DRSC02412,inactive
alpha-Est6 (alpha-Esterase-6),DRSC12618,inactive
CG11929,DRSC00339,inactive
CG7794,DRSC16313,inactive
Mco4 (Multicopper oxidase 4),DRSC20061,inactive
CG13248,DRSC11696,inactive
fz (frizzled),DRSC11348,inactive
ClpX (Caseinolytic protease chaperone subunit),DRSC15592,inactive
zip (zipper),DRSC04725,inactive
zip (zipper),DRSC22489,inactive
CG34435,DRSC18086,inactive
Mul1 (Mitochondrial E3 ubiquitin protein ligase 1),DRSC08174,inactive
CG15071,DRSC06504,inactive
MED16 (Mediator complex subunit 16),DRSC04506,inactive
Cyp313a5 (Cytochrome P450 313a5),DRSC16628,inactive
Jon99Ci (Jonah 99Ci),DRSC16860,inactive
CG1227,DRSC12534,inactive
Mcm2 (Minichromosome maintenance 2),DRSC16734,inactive
CG13135,DRSC02232,inactive
vis + achi,DRSC07277,inactive
sna (snail),DRSC03613,inactive
Fsn (F-box synaptic protein),DRSC06875,inactive
CG3502 + CG9863,DRSC04578,inactive
Dg (Dystroglycan),DRSC06718,inactive
CG13796 + CG31904,DRSC22161,inactive
bb8 (big bubble 8),DRSC15578,inactive
RanBPM (Ran-binding protein M),DRSC06079,inactive
CG15525,DRSC15062,inactive
CG4882,DRSC04495,inactive
CG3650,DRSC04401,inactive
Acsx2 (Acyl-CoA synthetase X2),DRSC14308,inactive
Syt12 (Synaptotagmin 12),DRSC19359,inactive
mRpL36 (mitochondrial ribosomal protein L36),DRSC10337,inactive
drpr (draper),DRSC08143,inactive
drpr (draper),DRSC08525,inactive
CG1074,DRSC12143,inactive
Nup107 (Nucleoporin 107kD),DRSC01999,inactive
CG14626,DRSC18631,inactive
Mvd (Mevalonate diphosphate decarboxylase),DRSC20096,inactive
Gpdh1 (Glycerol-3-phosphate dehydrogenase 1),DRSC03336,inactive
Gpdh1 (Glycerol-3-phosphate dehydrogenase 1),DRSC21666,inactive
Bet5 (Blocked early in transport 5),DRSC14600,inactive
Vrp1 (Verprolin 1),DRSC04148,inactive
CG11839,DRSC14398,inactive
CG4372,DRSC04466,inactive
CG6015,DRSC15948,inactive
p130CAS,DRSC07862,inactive
p130CAS,DRSC08257,inactive
"Sr-CIII (Scavenger receptor class C, type III)",DRSC22262,inactive
CG10650,DRSC02085,inactive
Irk2 (Inwardly rectifying potassium channel 2),DRSC15569,inactive
Agpat1 (1-Acylglycerol-3-phosphate O-acyltransferase 1),DRSC19879,inactive
Agpat1 (1-Acylglycerol-3-phosphate O-acyltransferase 1),DRSC19880,inactive
CG4872,DRSC19921,inactive
krimp (krimper),DRSC06578,inactive
Elba2 (Early boundary activity 2),DRSC00731,inactive
Sou (Souji),DRSC04356,inactive
Prm (Paramyosin),DRSC08941,inactive
Prm (Paramyosin),DRSC08942,inactive
Prm (Paramyosin),DRSC11255,inactive
CG4238,DRSC00090,inactive
CG4238,DRSC00644,inactive
PCID2 (PCI domain-containing protein 2),DRSC10822,inactive
mRpL37 (mitochondrial ribosomal protein L37),DRSC16062,inactive
CG14062,DRSC14725,inactive
SrpRalpha (Signal recognition particle receptor alpha),DRSC20251,inactive
Brf (Brf RNA polymerase III subunit),DRSC13228,inactive
Brf (Brf RNA polymerase III subunit),DRSC14166,inactive
Brf (Brf RNA polymerase III subunit),DRSC14167,inactive
CG1909,DRSC17150,inactive
Sap-r (Saposin-related),DRSC16849,inactive
Sap-r (Saposin-related),DRSC21916,inactive
Sec20 (Secretory 20),DRSC12295,inactive
Tsp39D (Tetraspanin 39D),DRSC03099,inactive
betaTub60D (beta-Tubulin at 60D),DRSC04673,inactive
betaTub60D (beta-Tubulin at 60D),DRSC22218,inactive
5-HT1B (5-hydroxytryptamine (serotonin) receptor 1B),DRSC05031,inactive
5-HT1B (5-hydroxytryptamine (serotonin) receptor 1B),DRSC05769,inactive
CG42789,DRSC13793,inactive
Oatp58Da (Organic anion transporting polypeptide 58Da),DRSC04365,inactive
CG32201,DRSC22452,inactive
S-Lap1 (Sperm-Leucylaminopeptidase 1),DRSC10627,inactive
Cpr65Ax2 + Cpr65Ax1,DRSC10341,inactive
Cpr65Ax2 + Cpr65Ax1,DRSC10344,inactive
CG34376,DRSC14695,inactive
CG34376,DRSC14696,inactive
CG34376,DRSC14701,inactive
CG5509,DRSC15822,inactive
CG9636,DRSC16529,inactive
Npl4 (Nuclear protein localization 4),DRSC15615,inactive
Npl4 (Nuclear protein localization 4),DRSC15616,inactive
Spn42De (Serpin 42De),DRSC05011,inactive
Tl (Toll),DRSC16885,inactive
Grik,DRSC15846,inactive
Grik,DRSC15847,inactive
CG1236,DRSC12203,inactive
CG33172,DRSC21793,inactive
CG31600,DRSC22541,inactive
Wwox (WW domain containing oxidoreductase),DRSC03030,inactive
Wwox (WW domain containing oxidoreductase),DRSC22872,inactive
Grl36a (Gustatory receptor-like 36a),DRSC21748,inactive
CG13728,DRSC10056,inactive
